Data published in paper doi:10.1101/2022.11.02.514846.
No constants are given. Whether binding was seen depends on the method and setting. Binding seen in cells or lysates may run through a third protein. Some entries that bind do so weakly or less than the wild type.

Chains of the proteins cited; added tags and fusions are not shown.
UniProt Q04206: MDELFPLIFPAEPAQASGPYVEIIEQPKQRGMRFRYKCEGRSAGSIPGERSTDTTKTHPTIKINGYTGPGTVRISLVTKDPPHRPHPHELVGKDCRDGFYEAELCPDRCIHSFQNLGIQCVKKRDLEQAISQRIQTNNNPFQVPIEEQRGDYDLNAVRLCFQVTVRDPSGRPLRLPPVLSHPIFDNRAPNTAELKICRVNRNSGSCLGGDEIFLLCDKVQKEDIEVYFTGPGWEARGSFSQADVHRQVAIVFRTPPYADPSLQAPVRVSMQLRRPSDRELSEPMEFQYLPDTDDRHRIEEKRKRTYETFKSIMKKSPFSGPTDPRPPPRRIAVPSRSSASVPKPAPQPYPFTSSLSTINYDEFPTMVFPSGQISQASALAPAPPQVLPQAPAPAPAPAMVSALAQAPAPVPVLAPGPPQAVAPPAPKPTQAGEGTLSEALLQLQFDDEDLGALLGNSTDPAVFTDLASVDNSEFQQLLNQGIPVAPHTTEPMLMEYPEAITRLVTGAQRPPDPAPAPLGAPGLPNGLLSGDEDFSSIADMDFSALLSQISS

Key:
p62-GFP wild-type (WT) = p62-GFP wild-type (WT) (UniProt Q13501); experiment: co-IP
[1] = molecular target: NF-κB subunit p65 (RelA), endogenous (human (endogenous in HEK293T, A549, U2-OS, THP1)) (UniProt Q04206); experiment: co-IP
[2] = molecular target: NF-κB subunit p65 (RelA), endogenous (human (endogenous in HEK293T, A549, U2-OS, THP1)) (UniProt Q04206); experiment: co-IP; remark: listed apart in the source
[3] = molecular target: NF-κB subunit p65 (RelA), endogenous (human (endogenous in HEK293T, A549, U2-OS, THP1)) (UniProt Q04206); experiment: proximity ligation

**Q.** For “NF-κB subunit p65 (RelA), endogenous (from UniProt Q04206 1-551)”, which binding (p62-GFP wild-type (WT)) is on record?
**A.** binds

**Q.** Which binding [1] does the source give for “p62 / sequestosome 1 (SQSTM1), endogenous (from UniProt Q13501 1-440)” here?
**A.** binds

**Q.** What about the binding [2] of the same substance?
**A.** binds

**Q.** What about the binding [3] of the same substance?
**A.** binds
